This passage reports binding results from paper PMC5647368.

Chains of the proteins cited; added tags and fusions are not shown. Lines headed by an entry give the natural chain unless they say otherwise; changes in a name come on top. A line that says so, or that is headed by a name, gives the form on record, which may keep a tag or linker. Residues count along the entry.
UniProt Q04206: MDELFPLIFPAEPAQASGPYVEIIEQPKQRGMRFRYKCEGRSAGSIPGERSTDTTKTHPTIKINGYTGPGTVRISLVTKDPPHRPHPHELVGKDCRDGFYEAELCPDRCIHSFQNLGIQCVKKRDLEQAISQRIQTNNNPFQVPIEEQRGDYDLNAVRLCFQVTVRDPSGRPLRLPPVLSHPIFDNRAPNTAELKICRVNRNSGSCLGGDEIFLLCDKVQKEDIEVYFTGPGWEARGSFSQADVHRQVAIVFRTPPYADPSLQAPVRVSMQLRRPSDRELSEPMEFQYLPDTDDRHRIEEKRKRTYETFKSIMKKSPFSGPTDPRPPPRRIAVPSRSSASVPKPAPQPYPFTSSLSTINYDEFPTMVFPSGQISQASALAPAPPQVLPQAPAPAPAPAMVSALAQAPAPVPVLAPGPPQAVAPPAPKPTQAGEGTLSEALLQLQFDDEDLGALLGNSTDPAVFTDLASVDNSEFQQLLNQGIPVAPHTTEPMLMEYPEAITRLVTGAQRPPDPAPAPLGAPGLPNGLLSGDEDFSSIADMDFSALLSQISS
Flag-tagged p65/RelA truncation D1 (RHD domain): residues 19-306 of Q04206

Results are given in words; binding and its absence hold for the method and conditions named. Binding seen in cells or lysates may run through a third protein. Some entries that bind do so weakly or less than the wild type. For some of these results: Tags and fused reporters may be left off the sequences shown.

Experiment [1] deals with Flag-tagged p65/RelA truncation D1 (RHD domain) (UniProt Q04206). Kind of experiment: co-IP; extracts of HEK293T cells co-transfected with two tagged constructs, harvested 24 h after transfection; immunoprecipitation (anti-Flag in Fig. 5D and 5F) and immunoblot for the other tag; beads washed six times with low-salt lysis buffer (50 mM Hepes pH 7.5, 150 mM NaCl, 1 mM EDTA, 1.5 mM MgCl2, 10% glycerol, 1% Triton X-100).

The target of experiment [2] is Flag-tagged p65/RelA full length (UniProt Q04206). Described as above.
Experiment [3] has as its target p65/RelA (endogenous, THP-1 cells) (human (endogenous in THP-1)) (UniProt Q04206). Kind of experiment: co-IP; endogenous proteins; THP-1 cells treated with or without LPS; cell extracts precipitated with anti-p65/RelA, immunoblot with anti-LRRC25 or anti-p62; IgG control.
Experiment [4] addresses p65/RelA (endogenous, PBMCs) (not stated (endogenous in PBMCs)) (UniProt Q04206). Kind of experiment: co-IP; endogenous proteins; PBMCs treated with 200 ng/ml LPS for 0, 60 and 120 min; cell extracts precipitated with anti-p65/RelA, immunoblot with anti-LRRC25; IgG isotype control.

B1: Myc-tagged LRRC25 (protein, UniProt Q8N386 21-305)
chain: LEPSCTVSSADVDWNAEFSATCLNFSGLSLSLPHNQSLRASNVILLDLSGNGLRELPVTFFAHLQKLEVLNVLRNPLSRVDGALAARCDLDLQADCNCALESWHDIRRDNCSGQKPLLCWDTTSSQHNLSAFLEVSCAPGLASATIGAVVVSGCLLLGLAIAGPVLAWRLWRCRVARSRELNKPWAAQDGPKPGLGLQPRYGSRSAPKPQVAVPSCPSTPDYENMFVGQPAAEHQWDEQGAHPSEDNDFYINYKDIDLASQPVYCNLQSLGQAPMDEEEYVIPGH
In the case of B1, the binding entry in experiment [1] and in experiment [2] was “binds” in each case.

B2: LRRC25 (endogenous, THP-1 cells) (protein, UniProt Q8N386 21-305)
chain: B1 chain
Take B2: the binding result in experiment [3] is recorded as “binds”.

B3: LRRC25 (endogenous, PBMCs) (protein, UniProt Q8N386 21-305)
chain: B1 chain
On to B3, for which the binding entry in experiment [4] is “binds”.
